# Experimental data published in the supplement of paper PMC3334620.
# Over roughly 33,000 sequences, “E-score (-0.5 to 0.5)” has its median near -0.0034; the highest 2% begin near 0.25. The list shows a part of the results.
# Target: T1, Yap3 (UniProt P38749)
# T1 sequence: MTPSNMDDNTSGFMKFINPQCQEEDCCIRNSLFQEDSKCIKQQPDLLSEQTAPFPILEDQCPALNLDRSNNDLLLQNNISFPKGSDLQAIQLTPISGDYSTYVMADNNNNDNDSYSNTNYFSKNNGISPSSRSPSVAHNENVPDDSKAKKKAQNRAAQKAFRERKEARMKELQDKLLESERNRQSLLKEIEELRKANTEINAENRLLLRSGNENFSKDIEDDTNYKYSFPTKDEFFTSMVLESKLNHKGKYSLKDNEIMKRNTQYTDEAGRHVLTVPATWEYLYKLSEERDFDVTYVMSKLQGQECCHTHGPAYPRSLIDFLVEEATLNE
# Experiment: PBM E-score (8-mer binding enrichment) (E-score (-0.5 to 0.5)); higher = stronger / more preferred TF binding
# Details: protein concentration: 100 nM; construct: GST-full length
# Protocol: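 Universal 'all 10-mer' protein binding microarrays (Agilent AMADID 015681) probed with GST-tagged S. cerevisiae TFs (full-length or DBD) made by in vitro transcription/translation (PURExpress), about 100-200 nM. Bound TF was detected with fluorescent anti-GST. Each ungapped 8-mer (which stands for itself and its reverse complement) is scored by the PBM enrichment score (E-score), a modified Wilcoxon-Mann-Whitney statistic from -0.5 to +0.5, computed with the Universal PBM Analysis Suite. Scale: above 0.35 generally sequence-specific binding.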
row,Sequence,PBM E-score
1,AAGTAAGT,0.00102
2,ACTTATAC,0.174
3,CTTGAGAA,-0.0484
4,GGAGTTTA,-0.0285
5,AACGTTCC,-0.104
6,ATTTCGTA,0.129
7,ATGCACTC,-0.00115
8,ACAGATAG,-0.00363
9,CCGATTTC,-0.0101
10,AACTTCTC,0.0525
11,CCCCGCCC,0.00985
12,ATACCAAA,0.123
13,ACTTATGG,-0.0318
14,CCATTGAG,0.0109
15,AACAGTAT,0.192
16,GCTGGGTA,-0.028
17,CACCATCC,-0.145
18,CATCACAC,0.114
19,AGATTGCT,0.00867
20,AGATACAC,0.154
21,ACCGGGCT,-0.223
22,GCCGATCA,0.00289
23,GATTCGAA,0.142
24,ACTAATTA,0.362
25,CTTCGCCC,-0.229

row,Sequence,PBM E-score
1,CATGCAGG,-0.15
2,AGTGATGC,-0.0267
3,GTTGAATA,0.162
4,AAATCAGC,0.157
5,GAACAATC,0.139
6,AGTTCCTC,-0.173
7,CCAACCGG,-0.193
8,ATAGACAC,-0.0202
9,TGGACCAA,-0.00121
10,ACCCTAGG,-0.151
11,AGCCTCCT,-0.163
12,AATGGCTA,0.169
13,CCCATAAG,0.0386
14,AGGCGAGC,-0.187
15,CACCGACG,-0.121
16,GTTAGCAA,0.223
17,CCAAAAGA,0.15
18,GGGTATGA,0.0924
19,CGTACCTC,-0.265
20,AGGCGTAT,0.0812
21,ATTCGGCG,-0.00807
22,AAATGAGC,-0.00997
23,ATATCCAC,0.0865
24,ACATGGGG,-0.0705
25,GCTAACAC,0.0247

# A second format for part of the listing above:
row	Sequence	PBM E-score
7	ATGCACTC	-0.00115
8	ACAGATAG	-0.00363
9	CCGATTTC	-0.0101

# Later entries:

row,Sequence,PBM E-score
1,CCCGGCGG,-0.345
2,CGTCGTCC,-0.0992
3,CAACGCAA,0.0467
4,GGCGAACA,0.0302
5,GTCCGGCA,-0.16
6,ATTAAAAA,0.285
7,AGGCAACC,-0.149
8,AAGGCGAA,-0.0603
9,ACGTTTTC,0.153
10,AAGAATTC,-0.0947
11,GTCTGAAC,-0.0647
12,CTCGCACC,-0.114
13,AACCAGGC,-0.00725
14,TCGTGAGA,-0.122
15,TCAAGTCA,0.0399
16,AAAGGCGC,-0.0234
17,AGAGAGCG,-0.0939
18,CACCAAGC,-0.127
19,ATGGGGGC,-0.311
20,CAGTCCCC,-0.275
21,GGTCTGTA,-0.0177
22,AAGAAGTA,0.12
23,AAGATACA,0.262
24,ATATGGGG,-0.108
25,GCGGACCC,-0.252

row,Sequence,PBM E-score
1,GTACGGCA,-0.0161
2,CAACGGAA,0.15
3,CACAAATG,-0.0666
4,ACTAGACG,0.0294
5,ATATGAAC,0.204
6,CCAGTGAC,-0.229
7,ACCGGCAT,0.0985
8,CAGATTGG,-0.236
9,GTCACGGA,-0.0868
10,ACCGAGGA,0.00574
11,ACGCTAGA,-0.117
12,TAGTGCCA,-0.138
13,CTTCACTA,0.0247
14,CGACTGTA,-0.124
15,ACACCGGC,-0.0945
16,AAGCAGTC,-0.0517
17,TATCCTAA,0.156
18,CCATACGA,0.0281
19,ACAATCTG,0.0719
20,ATCAAGTA,0.155
21,TAGTAAAA,0.148
22,AGTATGTA,0.0677
23,CAAGGCGC,-0.048
24,AAAATGCG,0.0493
25,GTCAATGA,0.03

# Another view of part of the listing above.
row	Sequence	PBM E-score
13	CCCATAAG	0.0386
18	GGGTATGA	0.0924
5	GTCCGGCA	-0.16
16	AAAGGCGC	-0.0234
24	AAAATGCG	0.0493

# Later entries

row,Sequence,PBM E-score
1,CTGAGATA,0.155
2,ACTGAGCT,-0.0894
3,AAAGACTT,-0.108
4,TAAAGATA,0.254
5,GGGTGCAA,0.00539
6,GGGAAAGA,-0.0127
7,AAGTTTAC,0.0978
8,TATTCTGA,-0.0529
9,CTATGGAG,-0.0464
10,ACACCGGG,-0.138
11,AGACTGGG,-0.0888
12,AGTACGGC,-0.0233
13,GCTTGAGA,-0.199
14,CTAGACGA,-0.157
15,ATAGTTTA,0.0591
16,ATACCTAC,-0.0217
17,CCAGCTCC,-0.254
18,GAATTGCA,0.101
19,AGACTGCG,-0.207
20,GATGACCC,-0.161
21,ACTCGAAC,-0.0222
22,CGTGATCA,0.112
23,ATAGGAAG,-0.0275
24,ATGCCAGG,-0.148
25,AGGAACTA,0.0401

row,Sequence,PBM E-score
1,ATATGCCC,-0.115
2,TCCACGGA,0.159
3,AATCGTTA,-0.00246
4,CATACAGG,-0.131
5,CCCCTGAG,-0.229
6,AGATGTAA,0.21
7,ATAAAGCA,0.151
8,ATATCAAG,0.26
9,CGGTCCAA,-0.17
10,CTATCATC,0.0471
11,ACTGAGGG,-0.182
12,CACCGTTC,-0.00047
13,CCGCCACG,-0.182
14,ACTTGGTC,0.066
15,ACTATGGG,-0.152
16,GGAGCATA,0.0546
17,GTTTTCAA,0.246
18,ACTGCCAC,-0.0144
19,AAGCATAC,0.0585
20,AGTCGTCC,-0.197
21,GGCGCTGA,-0.124
22,ACATGTCG,0.102
23,ATCATGGC,0.0955
24,GGGTCCGA,-0.169
25,TACTTTGA,0.101

row,Sequence,PBM E-score
1,TAACGGTA,0.187
2,CCAGGAGA,-0.0844
3,CATGGAGA,-0.0786
4,GGATCGCA,0.00507
5,CCCCTAAA,-0.272
6,CCTGATAA,0.144
7,GTATTAAA,0.141
8,CAGGCTGC,-0.111
9,CCTAACAA,0.188
10,CATCGCTC,-0.235
11,CGGAAAGC,0.0314
12,TTCGCGAA,0.178
13,CATAGATA,0.139
14,TCGATACA,0.198
15,AAACTTAG,0.0547
16,ATCTGCCC,-0.11
17,GGCGGTAA,0.0829
18,GTTTTGAA,0.075
19,CCGATAAC,0.116
20,ACAGTGAT,0.227
21,ATTAGGAG,0.142
22,ATGGAAGC,-0.0433
23,CAGACATC,0.0124
24,AATGCGGG,0.217
25,GGCGTACC,-0.0845

# Pulled one by one from the list above:
row,Sequence,PBM E-score
6,CCTGATAA,0.144
2,CCAGGAGA,-0.0844
23,CAGACATC,0.0124

# Remaining list, next part.

row,Sequence,PBM E-score
1,CCAAGTGA,0.0813
2,ATCGCACC,-0.106
3,AAGGTTCC,-0.0546
4,CTTGAATA,0.113
5,GAACTAGA,0.0868
6,ACGCTGCT,-0.0643
7,CAAATTGC,0.0855
8,GGAGGAGA,-0.189
9,CCTCCCAA,-0.184
10,AGTTGTAA,0.0857
11,ATTTTATA,0.331
12,CTCCGATA,-0.0427
13,CCGGTGAC,-0.147
14,ACTAGCAC,-0.0668
15,AGGACAGA,-0.00682
16,GACCAGTC,-0.235
17,ATGGTGAG,-0.0756
18,GCTTCTAC,-0.0524
19,AGCAATGG,-0.114
20,GTACTCAC,0.147
21,TTGTCAAA,0.0866
22,ATTCCCAG,0.0582
23,CCTTCAAA,0.0729
24,TAGGTAGA,0.076
25,AAGTAAAG,0.103

row,Sequence,PBM E-score
1,CGTCTCTA,-0.193
2,GCAAATAA,0.143
3,ATATGCTA,0.105
4,CTGGCGAC,-0.182
5,AACCGTCA,0.0373
6,AACCTTCG,0.0416
7,CACAAAGG,-0.1
8,AGCAGACA,-0.0779
9,ACGGACAT,-0.0278
10,CCCACTGA,-0.115
11,CCACAGCC,-0.133
12,CCCAGTCC,-0.214
13,CCTCCTAG,-0.0672
14,AGGACTGG,-0.221
15,GTGACATA,0.244
16,CTCCAGAG,-0.276
17,AGGGTGCC,-0.152
18,GGTCGCGA,0.0906
19,ATAGTCAA,0.0261
